# According to the supplement of paper PMC8728848:
# Some of the results follow.
# B1: Blon0732mut (Bifidobacterium longum) (protein)
# chain: MPTSEHKADDATRHLTLIPAPVTLEYTHGTALIGPLVTIEDADQSWETLPIEQLSDELRHRYGVTVLRRRTHGTVISLGLDSRLAHDEYTLDVSESEGIRVRGGGESGLRYGLQTLRQIIGQTSRAIPCLHIQDKPAFAVRAYSLDVTRGRVPTMEFLTWFVDQLALYKYNQFQLYVEHAFAFVELSEAWRGTDPLTAADITYLDEYCARRGIELVPSLATFGHMYMNLRTREHRGLGEFPEDADRPFSFIERMEHHTLNAADPKAHDFASRLIEEYAPLFRSKSFNIGGNETFDLGRGRSAQDAPEAGRDELYAGFVRDLCETLARHGRQPMLWADIALESPRTMDLLPGDITMLNWMYEPQIDESKIQTIATQGRRQFVCPAVRAWSRFFPDYAGAWLNTYHMALAGTKYDAEGMVVTDWGDYGHVNDPRLSVPGLCYGAQNAWNPIEIDAHEMNRRISALVYGDESGRIMDCLARIDSDGVSFPWDLAVQVLELEYGSGTGALNMDVAACMERSSGGKLTLDRTLGCDDARRRMLQWNRERIERRRDCDQVLRDCGDAFAGLDKGGLTAEFLSVMLDGQRLFNELGEELLALADGKDVGSGANRLAADLELWFERYRAQWLSVGRHAELARIAHVVWSLADILRRGAL
# Legend:
# Assay in all cases: glycan array binding signal (z-score within array); higher = stronger binding
# Conditions in all cases: glycan notation: IUPAC condensed, linker removed
# [1] = target: Neu5Ac(a2-6)Gal(b1-4)GlcNAc(b1-2)Man(a1-3)[Neu5Ac(a2-3)Gal(b1-4)GlcNAc(b1-2)Man(a1-6)]Man(b1-4)GlcNAc(b1-4)GlcNAc
# Method in brief: (§1)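 Arrays were curated from the Consortium for Functional Glycomics database, 3228 in total, and kept only where the protein sequence was available. Binding is expressed as a within-array Z-score. This score was averaged across arrays of the same protein sequence at different concentrations or buffers and across linkers, and negative values can be read as non-binding.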
# [2] = target: Neu5Ac(a2-6)Gal(b1-4)GlcNAc(b1-2)Man(a1-3)[Neu5Ac(a2-6)Gal(b1-4)GlcNAc(b1-2)Man(a1-6)]Man(b1-4)GlcNAc(b1-4)GlcNAc
# Method in brief: as §1
# [3] = target: Neu5Ac(a2-6)Gal(b1-4)GlcNAc(b1-2)Man(a1-3)[Neu5Ac(a2-6)Gal(b1-4)GlcNAc(b1-2)Man(a1-6)]Man(b1-4)GlcNAc(b1-4)[Fuc(a1-6)]GlcNAc
# Method in brief: as §1
# [4] = target: Neu5Ac(a2-6)Gal(b1-4)GlcNAc(b1-2)Man(a1-6)Man(b1-4)GlcNAc(b1-4)GlcNAc
# Method in brief: as §1
# [5] = target: Neu5Ac(a2-6)Gal(b1-4)GlcNAc(b1-2)Man(a1-6)[Gal(b1-4)GlcNAc(b1-2)Man(a1-3)]Man(b1-4)GlcNAc(b1-4)GlcNAc
# Method in brief: as §1
# [6] = target: Neu5Ac(a2-6)Gal(b1-4)GlcNAc(b1-2)Man(a1-6)[GlcNAc(b1-2)Man(a1-3)]Man(b1-4)GlcNAc(b1-4)GlcNAc
# Method in brief: as §1
# [7] = target: Neu5Ac(a2-6)Gal(b1-4)GlcNAc(b1-2)Man(a1-6)[Man(a1-3)]Man(b1-4)GlcNAc(b1-4)GlcNAc
# Method in brief: as §1
# [8] = target: Neu5Ac(a2-6)Gal(b1-4)GlcNAc(b1-2)[Neu5Ac(a2-6)Gal(b1-4)GlcNAc(b1-4)]Man(a1-3)[GlcNAc(b1-4)][Neu5Ac(a2-6)Gal(b1-4)GlcNAc(b1-2)[Neu5Ac(a2-6)Gal(b1-4)GlcNAc(b1-6)]Man(a1-6)]Man(b1-4)GlcNAc(b1-4)GlcNAc
# Method in brief: as §1
# [9] = target: Neu5Ac(a2-6)Gal(b1-4)GlcNAc(b1-2)[Neu5Ac(a2-6)Gal(b1-4)GlcNAc(b1-4)]Man(a1-3)[GlcNAc(b1-4)][Neu5Ac(a2-6)Gal(b1-4)GlcNAc(b1-4)Man(a1-6)]Man(b1-4)GlcNAc(b1-4)GlcNAc
# Method in brief: as §1
# [10] = target: Neu5Ac(a2-6)Gal(b1-4)GlcNAc(b1-2)[Neu5Ac(a2-6)Gal(b1-4)GlcNAc(b1-6)]Man(a1-6)[Neu5Ac(a2-6)Gal(b1-4)GlcNAc(b1-2)Man(a1-3)][GlcNAc(b1-4)]Man(b1-4)GlcNAc(b1-4)GlcNAc
# Method in brief: as §1
# [11] = target: Neu5Ac(a2-6)Gal(b1-4)GlcNAc(b1-3)Gal(b1-3)GlcNAc
# Method in brief: as §1
# [12] = target: Neu5Ac(a2-6)Gal(b1-4)GlcNAc(b1-3)Gal(b1-4)GlcNAc
# Method in brief: as §1
# [13] = target: Neu5Ac(a2-6)Gal(b1-4)GlcNAc(b1-3)Gal(b1-4)GlcNAc(b1-2)Man(a1-3)[Neu5Ac(a2-6)Gal(b1-4)GlcNAc(b1-3)Gal(b1-4)GlcNAc(b1-2)Man(a1-6)]GalNAc
# Method in brief: as §1
# [14] = target: Neu5Ac(a2-6)Gal(b1-4)GlcNAc(b1-3)Gal(b1-4)GlcNAc(b1-3)Gal(b1-4)GlcNAc
# Method in brief: as §1
# [15] = target: Neu5Ac(a2-6)Gal(b1-4)GlcNAc(b1-3)Gal(b1-4)GlcNAc(b1-3)Gal(b1-4)GlcNAc(b1-2)Man(a1-3)[Neu5Ac(a2-6)Gal(b1-4)GlcNAc(b1-3)Gal(b1-4)GlcNAc(b1-3)Gal(b1-4)GlcNAc(b1-2)Man(a1-6)]GalNAc
# Method in brief: as §1
# [16] = target: Neu5Ac(a2-6)Gal(b1-4)GlcNAc(b1-3)Gal(b1-4)GlcNAc(b1-3)GalNAc
# Method in brief: as §1
# [17] = target: Neu5Ac(a2-6)Gal(b1-4)GlcNAc(b1-3)Gal(b1-4)GlcNAc(b1-3)[Neu5Ac(a2-6)Gal(b1-4)GlcNAc(b1-3)Gal(b1-4)GlcNAc(b1-6)]GalNAc
# Method in brief: as §1
# [18] = target: Neu5Ac(a2-6)Gal(b1-4)GlcNAc(b1-3)Gal(b1-4)GlcNAc(b1-6)[Gal(b1-3)]GalNAc
# Method in brief: as §1
# [19] = target: Neu5Ac(a2-6)Gal(b1-4)GlcNAc(b1-3)Gal(b1-4)[Fuc(a1-3)]GlcNAc(b1-3)Gal(b1-4)[Fuc(a1-3)]GlcNAc
# Method in brief: as §1
# [20] = target: Neu5Ac(a2-6)Gal(b1-4)GlcNAc(b1-3)GalNAc
# Method in brief: as §1
# [21] = target: Neu5Ac(a2-6)Gal(b1-4)GlcNAc(b1-3)[Neu5Ac(a2-6)Gal(b1-4)GlcNAc(b1-6)]GalNAc
# Method in brief: as §1
# [22] = target: Neu5Ac(a2-6)Gal(b1-4)GlcNAc(b1-6)GalNAc
# Method in brief: as §1
# [23] = target: Neu5Ac(a2-6)Gal(b1-4)GlcNAc(b1-6)[Gal(b1-3)GlcNAc(b1-3)]Gal(b1-4)Glc
# Method in brief: as §1
# [24] = target: Neu5Ac(a2-6)Gal(b1-4)GlcNAc(b1-6)[Gal(b1-3)]GalNAc
# Method in brief: as §1
# [25] = target: Neu5Ac(a2-6)Gal(b1-4)GlcNAc6S
# Method in brief: as §1
# Neu5Ac(a2-6)GalNAc = target: Neu5Ac(a2-6)GalNAc
# Method in brief: as §1
# [26] = target: Neu5Ac(a2-6)GalNAc(b1-4)GlcNAc
# Method in brief: as §1
# [27] = target: Neu5Ac(a2-6)GalNAc(b1-4)GlcNAc6S
# Method in brief: as §1
# [28] = target: Neu5Ac(a2-6)GlcNAc(b1-4)GlcNAc
# Method in brief: as §1
# [29] = target: Neu5Ac(a2-6)GlcNAc(b1-4)GlcNAc(b1-4)GlcNAc
# Method in brief: as §1
binder,measurement,setting,value
B1,glycan array binding signal (z-score),[1],0.194
same,glycan array binding signal (z-score),[2],0.107
same,glycan array binding signal (z-score),[3],0.382
same,glycan array binding signal (z-score),[4],-0.639
same,glycan array binding signal (z-score),[5],-0.7
same,glycan array binding signal (z-score),[6],0.435
same,glycan array binding signal (z-score),[7],-1.08
same,glycan array binding signal (z-score),[8],-0.469
same,glycan array binding signal (z-score),[9],-0.948
same,glycan array binding signal (z-score),[10],-0.827
same,glycan array binding signal (z-score),[11],-0.499
same,glycan array binding signal (z-score),[12],-1.14
same,glycan array binding signal (z-score),[13],0.56
same,glycan array binding signal (z-score),[14],-1.1
same,glycan array binding signal (z-score),[15],-0.371
same,glycan array binding signal (z-score),[16],-0.725
same,glycan array binding signal (z-score),[17],1.06
same,glycan array binding signal (z-score),[18],-0.853
same,glycan array binding signal (z-score),[19],2.6
same,glycan array binding signal (z-score),[20],1.11
same,glycan array binding signal (z-score),[21],-0.111
same,glycan array binding signal (z-score),[22],0.599
same,glycan array binding signal (z-score),[23],-0.702
same,glycan array binding signal (z-score),[24],0.982
same,glycan array binding signal (z-score),[25],-0.982
same,glycan array binding signal (z-score),Neu5Ac(a2-6)GalNAc,-0.848
same,glycan array binding signal (z-score),[26],0.695
same,glycan array binding signal (z-score),[27],-0.881
same,glycan array binding signal (z-score),[28],-0.729
same,glycan array binding signal (z-score),[29],0.177

# Looked up one by one from above:
binder,measurement,setting,value
B1,glycan array binding signal (z-score),[13],0.56
same,glycan array binding signal (z-score),[2],0.107
